Assay results taken from article PMC9883520.
Changes are numbered by the printed parent chain. For some of these results: The comparison behind a weaker result is the experiment's own reference, which may not be listed here. Protein sequences can lack the tags named with them. For some of these results: For at least one entry, the source does not settle the construct or the ends of the probe. For some of these results: At least one verdict rests on a figure or table, not on a statement of the authors.

Experiments:
BRCA2 NTD (human) = target: T1, BRCA2 NTD (human) (UniProt P51587); experiment: EMSA; settings: EMSA: 25 mM Tris acetate pH 7.5, 1 mM DTT, 1 mM MgCl2, 2 mM CaCl2, 1 h at 37 C, 6% native PAGE in 1x TAE, recombinant protein, residues 250-500, protein details: 2xMBP
T1 sequence (looked up): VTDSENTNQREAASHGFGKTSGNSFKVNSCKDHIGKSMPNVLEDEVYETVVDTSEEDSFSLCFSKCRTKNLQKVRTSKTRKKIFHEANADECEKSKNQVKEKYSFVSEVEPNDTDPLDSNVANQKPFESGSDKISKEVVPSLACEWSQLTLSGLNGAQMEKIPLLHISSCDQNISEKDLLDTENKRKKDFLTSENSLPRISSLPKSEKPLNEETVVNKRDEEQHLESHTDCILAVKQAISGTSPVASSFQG

BRCA2 NTD-S273L (human) = target: T2, BRCA2 NTD-S273L (human) (UniProt P51587); experiment: EMSA; settings: EMSA: 25 mM Tris acetate pH 7.5, 1 mM DTT, 1 mM MgCl2, 2 mM CaCl2, 1 h at 37 C, 6% native PAGE in 1x TAE, recombinant protein, residues 250-500, protein details: 2xMBP
T2 sequence (looked up): T1 sequence (looked up) with S24L

[1] = 5 nM DNA, label: 5'-32P on oAC405
[2] = 6 nM DNA, label: 5'-32P, single-stranded DNA

Sequence | binding result (BRCA2 NTD (human); [1]) | binding result (BRCA2 NTD-S273L (human); [1]) | binding result (BRCA2 NTD (human); [2]) | binding result (BRCA2 NTD-S273L (human); [2])
TAATACAAAATAAGTAAATGAATAAACAGAGAAAATAAAG (double strand) [dsDNA 42mer (oAC405/oAC406)] | binds | binds more weakly |  | 
TTTTTTTTTTTTTTTTTTTTTTTTTTTTTTTTTTTTTTTT [dT40 (oAC379)] |  |  | binds | binds more weakly
